These are yes or no findings as the source states them, for the method shown. In cells and extracts the contact can be indirect. Some results given as binding are weak or reduced against the parent protein; the word gives no strength. For some assays here: Tags and fused reporters may be left off the sequences shown. One block for each molecule: values may come before it.
Tests used:
[1] = target: T1, Flag-tagged armadillo repeat-containing protein 4 (ARMC4)/outer dynein arm docking complex subunit 2 (ODAD2) (human) (UniProt Q5T2S8); test: co-IP; HEK293 or HT29 cells overexpressing the Flag-tagged bait, treated or untreated with IL-1β for 1 h; lysis in 1% Triton X-100, 50 mM Tris-HCl pH 7.4, 150 mM NaCl, 1 mM EDTA; anti-Flag M2 affinity gel overnight at 4 °C; elution with Flag peptide; Western blot
T1 sequence: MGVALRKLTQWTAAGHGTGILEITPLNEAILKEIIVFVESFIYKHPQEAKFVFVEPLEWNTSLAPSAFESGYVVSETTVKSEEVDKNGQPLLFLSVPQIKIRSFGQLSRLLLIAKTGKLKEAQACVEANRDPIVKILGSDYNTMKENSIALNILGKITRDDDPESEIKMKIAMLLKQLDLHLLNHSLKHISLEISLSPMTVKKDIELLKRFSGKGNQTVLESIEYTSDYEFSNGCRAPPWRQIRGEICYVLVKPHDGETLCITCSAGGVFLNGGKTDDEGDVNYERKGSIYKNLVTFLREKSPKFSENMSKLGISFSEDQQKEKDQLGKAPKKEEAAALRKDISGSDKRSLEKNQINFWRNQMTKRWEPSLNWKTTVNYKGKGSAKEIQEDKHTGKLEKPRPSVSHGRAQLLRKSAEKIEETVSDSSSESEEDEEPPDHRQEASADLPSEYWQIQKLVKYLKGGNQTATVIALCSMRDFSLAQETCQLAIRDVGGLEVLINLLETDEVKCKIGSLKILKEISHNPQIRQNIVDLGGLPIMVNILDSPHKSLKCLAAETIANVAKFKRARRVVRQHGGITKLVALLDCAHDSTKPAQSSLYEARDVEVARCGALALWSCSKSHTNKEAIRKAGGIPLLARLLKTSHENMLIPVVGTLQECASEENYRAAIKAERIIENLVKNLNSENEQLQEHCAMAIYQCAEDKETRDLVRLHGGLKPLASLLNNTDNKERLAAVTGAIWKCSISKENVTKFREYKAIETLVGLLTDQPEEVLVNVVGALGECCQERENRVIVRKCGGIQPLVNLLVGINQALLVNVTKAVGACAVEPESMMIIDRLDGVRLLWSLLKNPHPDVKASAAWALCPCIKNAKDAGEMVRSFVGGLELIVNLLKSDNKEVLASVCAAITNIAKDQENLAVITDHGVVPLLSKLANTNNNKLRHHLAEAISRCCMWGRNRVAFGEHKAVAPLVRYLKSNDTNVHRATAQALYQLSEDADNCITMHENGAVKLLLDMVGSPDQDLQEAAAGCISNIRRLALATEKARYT

The chains behind the UniProt entries cited, without tags or fusion partners.
UniProt Q04206: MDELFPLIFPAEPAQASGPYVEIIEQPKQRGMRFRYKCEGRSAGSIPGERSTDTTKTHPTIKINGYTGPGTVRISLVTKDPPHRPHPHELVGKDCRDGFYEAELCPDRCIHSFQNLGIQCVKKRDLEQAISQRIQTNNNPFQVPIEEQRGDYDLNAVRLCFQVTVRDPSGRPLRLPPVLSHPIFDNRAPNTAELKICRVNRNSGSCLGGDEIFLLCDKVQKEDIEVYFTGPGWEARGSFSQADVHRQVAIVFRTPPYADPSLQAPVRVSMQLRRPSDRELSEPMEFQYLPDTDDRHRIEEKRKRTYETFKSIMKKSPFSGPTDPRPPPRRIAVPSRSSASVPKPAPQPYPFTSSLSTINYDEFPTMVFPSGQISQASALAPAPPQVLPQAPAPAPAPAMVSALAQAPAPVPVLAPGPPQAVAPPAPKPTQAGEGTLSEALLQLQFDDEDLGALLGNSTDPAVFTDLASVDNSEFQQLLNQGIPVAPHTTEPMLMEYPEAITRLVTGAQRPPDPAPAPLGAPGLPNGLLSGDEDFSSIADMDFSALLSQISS

[2] = target: Flag-tagged p65 subunit of NF-κB (UniProt Q04206); test: as above

binding [1]: binds
Molecule: p65 subunit of NF-κB (RelA), endogenous (from UniProt Q04206 1-551)

binding [2]: binds
B1: armadillo repeat-containing protein 4 (ARMC4), endogenous (protein, UniProt Q5T2S8 1-1044)
chain: T1 sequence

— article PMC8910849
